Reference: the supplement of paper PMC12819154, “High-throughput peptide-centric local stability assay extends protein–ligand identification to membrane proteins, tissues and bacteria” (Nature Structural & Molecular Biology, 2025)
This is one part of the list. Most entries show no effect beyond the scatter of the controls.

The chains behind the UniProt entries cited, without tags or fusion partners. Where a name states a change or a piece, a line headed by the entry shows the natural chain unless it says otherwise.
UniProt Q9NZM3: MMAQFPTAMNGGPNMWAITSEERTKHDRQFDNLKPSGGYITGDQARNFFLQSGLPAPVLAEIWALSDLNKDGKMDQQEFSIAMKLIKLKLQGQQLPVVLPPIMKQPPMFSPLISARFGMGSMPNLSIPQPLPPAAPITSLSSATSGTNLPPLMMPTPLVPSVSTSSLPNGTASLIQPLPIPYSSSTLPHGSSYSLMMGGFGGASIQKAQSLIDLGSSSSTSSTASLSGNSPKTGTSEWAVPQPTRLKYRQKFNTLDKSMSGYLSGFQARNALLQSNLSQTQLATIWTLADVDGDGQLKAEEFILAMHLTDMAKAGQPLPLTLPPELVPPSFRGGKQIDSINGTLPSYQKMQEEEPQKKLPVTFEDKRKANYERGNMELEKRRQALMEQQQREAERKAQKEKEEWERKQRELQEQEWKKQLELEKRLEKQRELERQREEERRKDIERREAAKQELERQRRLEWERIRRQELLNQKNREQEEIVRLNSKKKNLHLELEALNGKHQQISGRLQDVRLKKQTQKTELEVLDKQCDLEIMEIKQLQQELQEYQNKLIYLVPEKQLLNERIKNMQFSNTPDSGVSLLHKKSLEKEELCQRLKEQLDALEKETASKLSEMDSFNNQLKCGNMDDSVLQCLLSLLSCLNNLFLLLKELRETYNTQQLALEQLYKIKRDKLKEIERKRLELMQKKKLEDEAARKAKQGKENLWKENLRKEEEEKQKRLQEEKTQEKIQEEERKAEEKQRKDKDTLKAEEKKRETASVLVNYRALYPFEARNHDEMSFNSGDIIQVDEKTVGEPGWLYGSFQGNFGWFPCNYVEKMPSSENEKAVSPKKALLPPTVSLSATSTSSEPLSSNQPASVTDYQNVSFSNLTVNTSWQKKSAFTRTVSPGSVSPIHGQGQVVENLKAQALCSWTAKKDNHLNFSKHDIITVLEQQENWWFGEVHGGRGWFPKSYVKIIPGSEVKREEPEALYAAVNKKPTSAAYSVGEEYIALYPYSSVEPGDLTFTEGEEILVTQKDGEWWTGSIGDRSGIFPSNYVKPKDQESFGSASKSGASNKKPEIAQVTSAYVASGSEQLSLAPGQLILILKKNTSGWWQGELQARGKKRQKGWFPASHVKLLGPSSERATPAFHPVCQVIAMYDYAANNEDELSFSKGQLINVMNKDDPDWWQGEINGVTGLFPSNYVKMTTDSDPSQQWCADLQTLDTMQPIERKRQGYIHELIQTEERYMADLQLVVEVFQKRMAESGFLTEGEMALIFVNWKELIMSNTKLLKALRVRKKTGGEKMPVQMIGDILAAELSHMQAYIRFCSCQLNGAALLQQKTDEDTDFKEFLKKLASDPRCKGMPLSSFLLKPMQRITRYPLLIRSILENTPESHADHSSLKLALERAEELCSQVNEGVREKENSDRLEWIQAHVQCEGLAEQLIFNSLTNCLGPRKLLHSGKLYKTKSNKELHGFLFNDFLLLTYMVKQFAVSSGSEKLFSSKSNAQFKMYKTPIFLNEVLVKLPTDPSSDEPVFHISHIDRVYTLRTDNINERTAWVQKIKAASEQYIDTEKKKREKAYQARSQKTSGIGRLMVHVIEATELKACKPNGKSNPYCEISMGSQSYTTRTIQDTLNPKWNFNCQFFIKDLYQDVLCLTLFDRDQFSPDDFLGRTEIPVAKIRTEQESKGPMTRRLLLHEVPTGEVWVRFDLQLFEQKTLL
UniProt Q9NZC9: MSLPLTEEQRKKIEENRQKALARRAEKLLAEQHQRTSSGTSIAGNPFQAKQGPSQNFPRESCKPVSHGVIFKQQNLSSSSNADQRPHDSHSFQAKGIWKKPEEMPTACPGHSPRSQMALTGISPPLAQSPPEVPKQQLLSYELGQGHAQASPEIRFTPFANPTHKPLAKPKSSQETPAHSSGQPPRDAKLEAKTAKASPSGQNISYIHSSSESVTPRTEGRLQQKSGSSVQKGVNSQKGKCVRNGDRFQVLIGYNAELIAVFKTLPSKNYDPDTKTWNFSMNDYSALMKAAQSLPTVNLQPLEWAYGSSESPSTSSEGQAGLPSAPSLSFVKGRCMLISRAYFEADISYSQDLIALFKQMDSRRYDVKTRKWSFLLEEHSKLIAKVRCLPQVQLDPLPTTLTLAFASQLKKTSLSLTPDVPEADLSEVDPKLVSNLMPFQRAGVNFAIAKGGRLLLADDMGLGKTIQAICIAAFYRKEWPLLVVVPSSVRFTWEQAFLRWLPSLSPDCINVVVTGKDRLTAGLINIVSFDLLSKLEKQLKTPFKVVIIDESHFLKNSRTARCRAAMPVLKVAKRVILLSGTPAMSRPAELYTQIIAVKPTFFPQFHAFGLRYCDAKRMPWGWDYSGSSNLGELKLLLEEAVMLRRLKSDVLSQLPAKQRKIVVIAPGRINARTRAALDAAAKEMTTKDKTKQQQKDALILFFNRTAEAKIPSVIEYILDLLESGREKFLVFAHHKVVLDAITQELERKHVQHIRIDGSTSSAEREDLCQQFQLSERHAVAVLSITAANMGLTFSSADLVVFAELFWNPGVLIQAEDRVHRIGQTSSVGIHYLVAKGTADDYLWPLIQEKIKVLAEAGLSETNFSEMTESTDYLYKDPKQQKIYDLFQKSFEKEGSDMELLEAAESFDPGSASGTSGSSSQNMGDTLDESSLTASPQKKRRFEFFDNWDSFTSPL
UniProt Q9NZ08: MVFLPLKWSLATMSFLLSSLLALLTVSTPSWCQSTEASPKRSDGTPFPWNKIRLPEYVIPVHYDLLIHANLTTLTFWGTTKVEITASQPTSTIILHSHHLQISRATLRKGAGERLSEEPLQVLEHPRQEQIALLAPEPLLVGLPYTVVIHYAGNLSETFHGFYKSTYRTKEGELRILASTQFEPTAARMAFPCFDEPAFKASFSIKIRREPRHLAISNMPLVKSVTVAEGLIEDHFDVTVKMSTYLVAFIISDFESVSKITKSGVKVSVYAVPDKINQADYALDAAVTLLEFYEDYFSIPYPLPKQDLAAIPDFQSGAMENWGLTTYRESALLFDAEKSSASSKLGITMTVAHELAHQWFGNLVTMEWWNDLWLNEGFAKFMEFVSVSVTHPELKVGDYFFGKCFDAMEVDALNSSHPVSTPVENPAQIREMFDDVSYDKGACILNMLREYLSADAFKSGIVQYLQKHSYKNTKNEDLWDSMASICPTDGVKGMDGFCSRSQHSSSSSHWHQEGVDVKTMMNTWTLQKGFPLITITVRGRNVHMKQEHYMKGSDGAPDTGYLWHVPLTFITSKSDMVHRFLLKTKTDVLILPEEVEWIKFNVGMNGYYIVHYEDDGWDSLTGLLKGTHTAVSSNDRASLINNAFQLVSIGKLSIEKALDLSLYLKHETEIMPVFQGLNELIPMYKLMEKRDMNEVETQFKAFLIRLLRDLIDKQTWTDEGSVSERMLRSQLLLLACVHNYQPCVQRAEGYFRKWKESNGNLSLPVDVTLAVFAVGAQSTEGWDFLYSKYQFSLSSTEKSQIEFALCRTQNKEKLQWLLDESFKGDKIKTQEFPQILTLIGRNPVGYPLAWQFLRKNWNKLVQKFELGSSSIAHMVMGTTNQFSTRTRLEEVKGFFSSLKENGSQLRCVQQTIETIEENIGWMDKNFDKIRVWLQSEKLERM
UniProt Q9UGI8: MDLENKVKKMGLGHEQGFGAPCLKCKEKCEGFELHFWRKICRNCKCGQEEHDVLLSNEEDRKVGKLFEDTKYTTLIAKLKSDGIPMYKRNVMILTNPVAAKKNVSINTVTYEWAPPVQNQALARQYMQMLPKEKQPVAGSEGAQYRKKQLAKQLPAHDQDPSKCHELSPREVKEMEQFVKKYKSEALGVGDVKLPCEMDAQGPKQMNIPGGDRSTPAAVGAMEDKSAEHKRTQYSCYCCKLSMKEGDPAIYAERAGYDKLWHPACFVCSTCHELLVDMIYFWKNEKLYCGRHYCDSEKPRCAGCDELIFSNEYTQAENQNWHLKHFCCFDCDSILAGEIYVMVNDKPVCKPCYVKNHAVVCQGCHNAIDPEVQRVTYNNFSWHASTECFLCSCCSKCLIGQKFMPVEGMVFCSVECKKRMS
UniProt Q9NY97: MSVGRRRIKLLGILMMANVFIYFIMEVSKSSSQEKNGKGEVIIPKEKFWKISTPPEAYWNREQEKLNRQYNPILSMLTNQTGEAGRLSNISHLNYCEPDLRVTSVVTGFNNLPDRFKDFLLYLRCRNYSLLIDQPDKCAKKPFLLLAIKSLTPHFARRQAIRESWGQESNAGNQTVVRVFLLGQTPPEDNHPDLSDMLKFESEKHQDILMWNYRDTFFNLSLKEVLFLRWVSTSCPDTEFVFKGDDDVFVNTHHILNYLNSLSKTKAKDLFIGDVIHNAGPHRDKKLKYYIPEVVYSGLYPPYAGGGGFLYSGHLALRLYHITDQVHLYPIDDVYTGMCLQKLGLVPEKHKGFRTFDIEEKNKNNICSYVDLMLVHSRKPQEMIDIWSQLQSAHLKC
UniProt Q9P275: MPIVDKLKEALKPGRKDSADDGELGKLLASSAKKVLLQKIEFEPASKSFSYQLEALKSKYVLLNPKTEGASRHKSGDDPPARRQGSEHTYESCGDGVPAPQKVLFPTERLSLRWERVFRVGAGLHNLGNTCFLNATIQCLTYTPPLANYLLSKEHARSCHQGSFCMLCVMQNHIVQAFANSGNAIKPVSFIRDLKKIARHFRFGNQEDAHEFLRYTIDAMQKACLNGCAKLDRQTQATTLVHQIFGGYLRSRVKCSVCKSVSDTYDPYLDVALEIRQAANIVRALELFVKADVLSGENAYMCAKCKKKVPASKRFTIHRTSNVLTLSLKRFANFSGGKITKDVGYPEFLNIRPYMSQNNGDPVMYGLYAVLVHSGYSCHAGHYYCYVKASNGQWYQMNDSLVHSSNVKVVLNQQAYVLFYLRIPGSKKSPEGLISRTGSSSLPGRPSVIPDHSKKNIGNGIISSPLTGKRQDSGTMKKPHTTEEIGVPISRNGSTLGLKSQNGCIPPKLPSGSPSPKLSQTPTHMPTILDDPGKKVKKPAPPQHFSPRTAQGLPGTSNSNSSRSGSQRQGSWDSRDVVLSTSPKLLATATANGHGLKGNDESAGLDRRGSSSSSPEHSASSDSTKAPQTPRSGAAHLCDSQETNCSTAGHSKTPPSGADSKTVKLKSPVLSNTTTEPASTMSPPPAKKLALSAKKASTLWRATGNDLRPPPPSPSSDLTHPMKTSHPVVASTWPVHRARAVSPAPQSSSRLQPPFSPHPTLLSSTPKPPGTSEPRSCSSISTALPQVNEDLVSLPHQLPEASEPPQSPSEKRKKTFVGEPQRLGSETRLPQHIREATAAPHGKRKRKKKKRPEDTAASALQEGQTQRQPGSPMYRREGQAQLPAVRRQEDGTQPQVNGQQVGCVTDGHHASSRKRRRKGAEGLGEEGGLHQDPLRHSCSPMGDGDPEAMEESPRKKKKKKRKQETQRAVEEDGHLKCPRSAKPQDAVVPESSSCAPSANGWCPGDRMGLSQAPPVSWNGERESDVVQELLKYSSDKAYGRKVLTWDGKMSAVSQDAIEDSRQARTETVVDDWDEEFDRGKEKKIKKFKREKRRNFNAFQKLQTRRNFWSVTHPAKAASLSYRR
UniProt Q9UBF2: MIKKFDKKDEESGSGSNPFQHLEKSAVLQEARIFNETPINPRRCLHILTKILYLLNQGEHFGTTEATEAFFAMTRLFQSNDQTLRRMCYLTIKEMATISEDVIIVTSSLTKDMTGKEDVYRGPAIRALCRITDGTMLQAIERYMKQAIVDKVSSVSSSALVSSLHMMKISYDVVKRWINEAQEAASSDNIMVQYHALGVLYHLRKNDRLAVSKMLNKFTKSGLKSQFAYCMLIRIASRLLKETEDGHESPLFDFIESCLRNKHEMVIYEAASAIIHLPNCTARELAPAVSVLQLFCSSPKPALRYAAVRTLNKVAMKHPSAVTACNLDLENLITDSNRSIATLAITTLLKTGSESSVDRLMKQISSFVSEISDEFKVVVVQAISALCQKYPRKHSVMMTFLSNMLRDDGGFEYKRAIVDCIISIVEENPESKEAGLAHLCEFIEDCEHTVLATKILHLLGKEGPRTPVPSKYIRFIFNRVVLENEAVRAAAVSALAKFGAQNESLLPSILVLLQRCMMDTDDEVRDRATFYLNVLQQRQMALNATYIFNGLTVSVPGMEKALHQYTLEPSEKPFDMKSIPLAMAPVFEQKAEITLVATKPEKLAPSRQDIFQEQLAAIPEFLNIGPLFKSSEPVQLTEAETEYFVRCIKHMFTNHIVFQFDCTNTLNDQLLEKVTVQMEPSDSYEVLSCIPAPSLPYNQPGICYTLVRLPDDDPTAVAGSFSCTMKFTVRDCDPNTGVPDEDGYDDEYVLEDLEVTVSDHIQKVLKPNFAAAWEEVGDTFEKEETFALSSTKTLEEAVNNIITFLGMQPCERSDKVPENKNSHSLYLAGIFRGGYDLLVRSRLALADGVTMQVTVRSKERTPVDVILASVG

Compound: Cc1nc(Nc2ncc(C(=O)Nc3c(C)cccc3Cl)s2)cc(N2CCN(CCO)CC2)n1 [dasatinib]
Assay: log2 fold change of tryptic peptide abundance, ligand vs vehicle (limited proteolysis) (log2 ratio); higher = more trypsin-susceptible (destabilized)
Details: ligand concentration: 5 uM; sample: K562 cleared lysate

Target | log2 fold change
ITSN2 (peptide sequence: KKNLHLELEALNGK, peptide start residue: 488) (UniProt Q9NZM3) | -0.316
MRPL39 (peptide sequence: KSILALVDGQPWDMYKPLTK, peptide start residue: 102) (UniProt Q9NYK5) | 0.474
SMARCAL1 (peptide sequence: QGPSQNFPR, peptide start residue: 51) (UniProt Q9NZC9) | 0.429
ERAP1 (peptide sequence: GMDGFCSR, peptide start residue: 493) (UniProt Q9NZ08) | 0.0165
AATF (peptide sequence: SILTQIDHILMDKER, peptide start residue: 391) (UniProt Q9NY61) | -0.417
TES (peptide sequence: MGLGHEQGFGAPCLKCK, peptide start residue: 10) (UniProt Q9UGI8) | 0.114
B3GNT2 (peptide sequence: AKDLFIGDVIHNAGPHR, peptide start residue: 267) (UniProt Q9NY97) | 0.148
USP36 (peptide sequence: AVSPAPQSSSR, peptide start residue: 740) (UniProt Q9P275) | 0.393
MRPL27 (peptide sequence: CLYALEEGIVR, peptide start residue: 88) (UniProt Q9P0M9) | 0.285
COPG2 (peptide sequence: DMTGKEDVYR, peptide start residue: 112) (UniProt Q9UBF2) | -0.293

Quoted at random: two entries already listed, in no set order.
Target | log2 fold change
MRPL39 (peptide sequence: KSILALVDGQPWDMYKPLTK, peptide start residue: 102) (UniProt Q9NYK5) | 0.474
AATF (peptide sequence: SILTQIDHILMDKER, peptide start residue: 391) (UniProt Q9NY61) | -0.417
